No constants are given. Whether binding was seen depends on the method and setting. Binding seen in cells or lysates may run through a third protein. These calls come from enrichment with a bait or labelling near it, and not all partners need be listed.

By UniProt entry, the sequences of proteins in these tests, tags left out.
UniProt P14618: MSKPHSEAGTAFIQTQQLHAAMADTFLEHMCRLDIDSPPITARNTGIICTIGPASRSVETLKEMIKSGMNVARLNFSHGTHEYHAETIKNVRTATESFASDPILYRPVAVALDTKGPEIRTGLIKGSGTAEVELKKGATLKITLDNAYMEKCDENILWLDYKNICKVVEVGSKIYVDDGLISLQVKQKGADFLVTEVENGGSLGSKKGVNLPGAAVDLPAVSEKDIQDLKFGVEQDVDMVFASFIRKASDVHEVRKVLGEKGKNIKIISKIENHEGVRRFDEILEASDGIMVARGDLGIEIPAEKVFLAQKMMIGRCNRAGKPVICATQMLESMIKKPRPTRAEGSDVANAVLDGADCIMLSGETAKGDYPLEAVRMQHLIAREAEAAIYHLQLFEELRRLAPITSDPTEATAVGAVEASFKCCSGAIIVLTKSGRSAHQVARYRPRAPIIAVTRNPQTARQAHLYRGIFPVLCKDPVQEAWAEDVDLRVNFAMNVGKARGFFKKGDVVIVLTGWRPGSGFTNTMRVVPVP
UniProt P21796: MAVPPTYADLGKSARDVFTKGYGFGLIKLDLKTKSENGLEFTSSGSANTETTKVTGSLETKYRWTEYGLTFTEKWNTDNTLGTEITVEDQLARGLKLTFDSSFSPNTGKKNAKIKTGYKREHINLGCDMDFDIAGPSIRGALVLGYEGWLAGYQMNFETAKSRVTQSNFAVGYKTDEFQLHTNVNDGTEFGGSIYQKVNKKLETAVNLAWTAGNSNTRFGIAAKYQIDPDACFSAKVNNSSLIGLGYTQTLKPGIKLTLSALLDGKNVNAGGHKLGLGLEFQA

The values that follow come from publication doi:10.1101/2025.05.28.656718.

The assay concerns the target T1, SARM1 (bait of the affinity purification from Expi293F cells) (human) (UniProt Q6SZW1).
T1 sequence: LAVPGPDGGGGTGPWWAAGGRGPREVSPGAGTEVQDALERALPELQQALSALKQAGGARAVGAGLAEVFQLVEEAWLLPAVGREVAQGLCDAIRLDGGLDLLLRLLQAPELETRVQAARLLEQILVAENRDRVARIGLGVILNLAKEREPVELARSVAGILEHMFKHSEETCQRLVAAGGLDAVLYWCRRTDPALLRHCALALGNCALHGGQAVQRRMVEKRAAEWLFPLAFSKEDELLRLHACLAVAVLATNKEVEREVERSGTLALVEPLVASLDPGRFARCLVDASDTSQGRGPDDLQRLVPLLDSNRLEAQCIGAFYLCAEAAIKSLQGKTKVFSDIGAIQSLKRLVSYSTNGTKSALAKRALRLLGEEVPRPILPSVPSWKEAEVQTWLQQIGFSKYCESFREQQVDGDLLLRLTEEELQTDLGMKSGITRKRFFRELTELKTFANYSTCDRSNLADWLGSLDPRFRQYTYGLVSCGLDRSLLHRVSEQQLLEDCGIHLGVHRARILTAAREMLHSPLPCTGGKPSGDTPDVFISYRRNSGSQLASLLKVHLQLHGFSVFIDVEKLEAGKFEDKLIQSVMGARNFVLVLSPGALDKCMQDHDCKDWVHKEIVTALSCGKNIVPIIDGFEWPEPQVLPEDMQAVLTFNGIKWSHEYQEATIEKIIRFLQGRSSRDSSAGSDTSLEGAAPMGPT
As to the kind of experiment: affinity purification with mass spectrometry.

“Pyruvate kinase M (PKM), endogenous in Expi293F cells (from UniProt P14618 1-531) (enzyme)”: the binding entry is “binds”. As to VDAC1 (from UniProt P21796 1-283), the binding entry was “binds”.
